# Data from the supplement of paper PMC9135407.
# Several values for one entry are separate records, joined by “and”; a condition that tells them apart may be missing. Identical values can stand only once. Counter-ions that a name gives are not always drawn. ± gives the standard deviation of the averaged measurements. The list shows a part of the results. Plates or batches differ in their baseline, so values are only roughly comparable.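 Assay uses culture-activated primary human stellate myofibroblasts; lipid droplet recovery indicates inactivation. Measured: proportion of Hoechst-counted cells over a plate-specific Bodipy cutoff, duplicate wells, DMSO and nortriptyline as per-plate negative and positive controls. A hit scores, control-normalized, above the plate's top-tenth-percentile nortriptyline wells or ranks among its three best wells. Final well concentrations not reported.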
# Test system: primary human hepatic stellate cells (donor 1)
# Experiment: percent Bodipy-positive cells; higher = more lipid droplet accumulation
# Details: 48 h
# [1] = library stock concentration: 10 mM
# [2] = library stock concentration: 3.33 mM
# [3] = library stock concentration: 1 mM
# [4] = library stock concentration: 80 uM
# [5] = library stock concentration: 400 uM
# [6] = library stock concentration: 2 mM
structure (smiles),measurement,setting,value
COc1cc(NS(=O)(=O)c2ccc(N)cc2)ncn1 [Sulfamonomethoxine],percent Bodipy-positive cells,,9.26 ± 2.7%
same,percent Bodipy-positive cells,library stock concentration: 7.1 mM,21.6 ± 3.6%
same,percent Bodipy-positive cells,[1],27.6 ± 14%
CC(C)=CCc1c2c(c3occ(-c4ccc(O)c(O)c4)c(=O)c3c1O)C=CC(C)(C)O2 [Pomiferin],percent Bodipy-positive cells,[1],68.7 ± 8%
CCN(c1ccccc1)c1cc(=NC)n(C)c(C)n1,percent Bodipy-positive cells,[1],5.89 ± 2.3%
CCCCCCCC/C=C\CCCCCCCC(=O)O.NCCO,percent Bodipy-positive cells,[1],34.8 ± 5%
Cc1cc(C)nc(NS(=O)(=O)c2ccc(N)cc2)n1 [Sulfamethazine],percent Bodipy-positive cells,[2],8.37 ± 6.2%
same,percent Bodipy-positive cells,library stock concentration: 7.2 mM,11.4 ± 0.74%
same,percent Bodipy-positive cells,[1],27.3% and 19.7%
Cc1cc(C)nc(NS(=O)(=O)c2ccc(N)cc2)n1 [Sulfamethazine sodium salt],percent Bodipy-positive cells,,8.61 ± 2.3%
CC(C)[C@H](N)C(=O)OCCOCn1cnc2c(=O)nc(N)[nH]c21 [Valaciclovir],percent Bodipy-positive cells,library stock concentration: 6.2 mM,6.59 ± 1.9%
CC(C)[C@H](N)C(=O)OCCOCn1cnc2c(=O)nc(N)[nH]c21,percent Bodipy-positive cells,[1],9.96 ± 4.7%
CC(C)[C@H](N)C(=O)OCCOCn1cnc2c(=O)nc(N)[nH]c21 [Valaciclovir HCl],percent Bodipy-positive cells,[2],11.1 ± 2.6%
same,percent Bodipy-positive cells,[1],11.8 ± 7.1%
CC(C)[C@H](N)C(=O)OCCOCn1cnc2c(=O)nc(N)[nH]c21 [Valacyclovir hydrochloride],percent Bodipy-positive cells,[1],37.4 ± 10%
CC[C@H](NC(=O)[C@H](C)NC)C(=O)N1C[C@@H](O)C[C@H]1Cc1c(-c2[nH]c3cc(F)ccc3c2C[C@@H]2C[C@H](O)CN2C(=O)[C@H](CC)NC(=O)[C@H](C)NC)[nH]c2cc(F)ccc12 [Birinapant],percent Bodipy-positive cells,[2],10.2 ± 0.39%
same,percent Bodipy-positive cells,[1],61.3 ± 22%
CC(C)N(CC[C@H](c1ccccc1)c1cc(CO)ccc1O)C(C)C,percent Bodipy-positive cells,[2],12.2 ± 3.5%
same,percent Bodipy-positive cells,[1],27.6 ± 7%
Cn1cc(C(F)(F)F)nc1-c1ccc(OCC(O)CNCCOc2ccc(O)c(C(N)=O)c2)cc1 (stereo not drawn),percent Bodipy-positive cells,[1],79.86 ± 0.19%
CN1CCN2c3ncccc3Cc3ccccc3C2C1 (stereo not drawn) [mirtazapine],percent Bodipy-positive cells,[1],55.7 ± 1.1%
CN1CCN2c3ncccc3Cc3ccccc3C2C1 (stereo not drawn) [Mirtazapine],percent Bodipy-positive cells,[2],22.1 ± 2.7%
same,percent Bodipy-positive cells,[1],29.1 ± 0.76%
CN1CCN2c3ncccc3Cc3ccccc3C2C1 (stereo not drawn),percent Bodipy-positive cells,[1],44.4 ± 12%
CN1CCN2c3ncccc3Cc3ccccc3C2C1 (stereo not drawn) [Mirtazepine],percent Bodipy-positive cells,[1],14.1 ± 2.4%
C[C@@H]1C/C=C/C=C/C=C/C=C/[C@H](O[C@@H]2O[C@H](C)[C@@H](O)[C@H](N)[C@@H]2O)C[C@@H]2O[C@](O)(C[C@@H](O)C[C@H]3O[C@@H]3/C=C/C(=O)O1)C[C@H](O)[C@H]2C(=O)O [Natamycin],percent Bodipy-positive cells,library stock concentration: 3 mM,11.6 ± 3.4%
same,percent Bodipy-positive cells,[2],10.3 ± 3.2%
same,percent Bodipy-positive cells,[1],8.76 ± 1.5%
CC(C(O)c1ccc(O)cc1)N1CCC(Cc2ccccc2)CC1 (stereo not drawn) [Ifenprodil hemitartrate],percent Bodipy-positive cells,[1],39.8 ± 8.9%
CC(C(O)c1ccc(O)cc1)N1CCC(Cc2ccccc2)CC1 (stereo not drawn) [Ifenprodil Tartrate],percent Bodipy-positive cells,[2],19.1 ± 1.8%
same,percent Bodipy-positive cells,[1],58.9 ± 6.3%
CC(C(O)c1ccc(O)cc1)N1CCC(Cc2ccccc2)CC1 (stereo not drawn) [Ifenprodil],percent Bodipy-positive cells,library stock concentration: 6.1 mM,25 ± 4.8%
same,percent Bodipy-positive cells,library stock concentration: 9.6 mM,32.2 ± 0.76%
CC(C(O)c1ccc(O)cc1)N1CCC(Cc2ccccc2)CC1 (stereo not drawn) [Ifenprodil tartrate],percent Bodipy-positive cells,,44.7 ± 2.3%
CCCCCCCCCCCCCCCC(=O)N[C@@H](COP(=O)(O)O)C(=O)O,percent Bodipy-positive cells,[3],9.81 ± 5.7%
CCCCC[C@H](O)/C=C/[C@H]1C2COC(C2)[C@@H]1C/C=C/CCCC(=O)O (stereo partly drawn),percent Bodipy-positive cells,[3],20.5 ± 3.6%
CCC1=C[C@H]2CN(C1)Cc1c([nH]c3ccccc13)[C@@](C(=O)OC)(c1cc3c(cc1OC)N(C)[C@H]1[C@@](O)(C(=O)OC)[C@H](OC(C)=O)[C@]4(CC)C=CCN5CC[C@]31[C@@H]54)C2.O=C(O)C(O)C(O)C(=O)O,percent Bodipy-positive cells,[1],99.58 ± 0.17%
O=c1ccn([C@@H]2O[C@H](COP(=O)(O)OP(=O)(O)O)[C@@H](O)[C@H]2O)c(=O)[nH]1 [Uridine 5'-diphosphate sodium],percent Bodipy-positive cells,[1],14.4 ± 2.3%
O=C1Nc2ccc(Br)cc2/C1=C/c1cc2c([nH]1)CCCC2 [VEGF Receptor 2 Kinase Inhibitor II],percent Bodipy-positive cells,[2],79.5 ± 8.9%
"Cc1ccc(OCC(O)C(C)NC(C)C)c2c1CCC2 (stereo not drawn) [ICI-118,551 hydrochloride]",percent Bodipy-positive cells,[1],46.1 ± 8.9%
CCn1c(=O)c2c(nc(/C=C/c3ccc(OC)c(OC)c3)n2C)n(CC)c1=O [Istradefylline],percent Bodipy-positive cells,[2],16.4 ± 2.6%
same,percent Bodipy-positive cells,[1],27.1 ± 2.3%
CCCn1c(=O)c(C)cn2nc(N)nc12,percent Bodipy-positive cells,[1],21.9% and 6.16%
COc1ccc(N(C(=O)Nc2c(C)cccc2C)c2cc(Nc3ccc(N4CCN(C)CC4)cc3)ncn2)c(OC)c1,percent Bodipy-positive cells,[4],8.15 ± 0.68%
same,percent Bodipy-positive cells,[5],20.5 ± 3%
same,percent Bodipy-positive cells,[6],55.1 ± 2.2%
NC(C(=O)O)C(O)C(=O)O (racemic) [DL-threo-beta-hydroxyaspartic acid],percent Bodipy-positive cells,[1],38.2 ± 15%
c1ccc2cc(C3=NCCN3)ncc2c1 [BU 226 hydrochloride],percent Bodipy-positive cells,[1],8.3 ± 1.6%
CN([C@@H](Cc1ccc(OS(=O)(=O)c2cccc3cnccc23)cc1)C(=O)N1CCN(c2ccccc2)CC1)S(=O)(=O)c1cccc2cnccc12,percent Bodipy-positive cells,[4],5.88 ± 0.82%
same,percent Bodipy-positive cells,[5],7.92 ± 2.6%
same,percent Bodipy-positive cells,[6],11.9 ± 6.1%
same,percent Bodipy-positive cells,[1],9.956 ± 0.023%
CC1=CC(=O)c2ccccc2C1=O [Menadione],percent Bodipy-positive cells,,98.9 ± 1.6%
O=C(O)C1=CC(=C(c2ccc(O)c(C(=O)O)c2)c2ccc(O)c(C(=O)O)c2)C=CC1=O [Aurintricarboxylic acid],percent Bodipy-positive cells,[1],9.28 ± 3%
CCCCC[C@H](O)/C=C/[C@@H]1C2C[C@H](CCCCC(=O)O)O[C@@H]2C[C@H]1O (stereo partly drawn) [6.beta.-Prostaglandin I1],percent Bodipy-positive cells,[3],28.4 ± 6%
Nc1nc2c(cnn2CCc2ccccc2)c2nc(-c3ccco3)nn12,percent Bodipy-positive cells,[1],57.5 ± 8.2%
CCOC(=O)c1c(C)[nH]c(/C=C2\C(=O)Nc3ccccc32)c1C [VEGF Receptor 2 Kinase Inhibitor I],percent Bodipy-positive cells,[2],16.8 ± 4%
"CN1C(=O)/C(=C2\Nc3ccccc3\C2=N\O)c2ccc(Br)cc21 [GSK-3 Inhibitor IX, Control, MeBIO]",percent Bodipy-positive cells,[2],84.2 ± 2%
CNC(=O)c1c(F)cccc1Nc1nc(Nc2cc3c(cc2OC)CCN3C(=O)CN(C)C)nc2[nH]ccc12,percent Bodipy-positive cells,[1],98.61 ± 0.25%
COc1ccc2c(c1)c(CC(=O)O)c(C)n2C(=O)c1ccccc1 [1-benzoyl-5-methoxy-2-methylindole-3-acetic acid],percent Bodipy-positive cells,[1],34.8 ± 1.5%
NC[C@H]1O[C@H](O[C@H]2[C@H](O)[C@@H](O[C@H]3O[C@H](CO)[C@@H](O)[C@H](N)[C@H]3O)[C@H](N)C[C@@H]2N)[C@H](N)C[C@@H]1O [Tobramycin],percent Bodipy-positive cells,,34.1 ± 11%
C=CCOc1ccccc1OCC(O)CNC(C)C (stereo not drawn) [Oxprenolol hydrochloride],percent Bodipy-positive cells,,16.6 ± 9.8%
O=C(/C=C/c1cccc(S(=O)(=O)Nc2ccccc2)c1)NO [Belinostat],percent Bodipy-positive cells,[4],41.6 ± 2.9%
same,percent Bodipy-positive cells,[5],36.1 ± 1.4%
same,percent Bodipy-positive cells,[6],66.8 ± 0.69%
same,percent Bodipy-positive cells,[1],87 ± 2.3%
O=C(/C=C/c1cccc(S(=O)(=O)Nc2ccccc2)c1)NO [Belinostat (PXD101)],percent Bodipy-positive cells,[2],58.9 ± 4.1%
same,percent Bodipy-positive cells,[1],69.5 ± 15%
